1 compound from ChEMBL document CHEMBL5550209, “Hit-to-Lead Optimization of Heterocyclic Carbonyloxycarboximidamides as Selective Antagonists at Human Adenosine A3 Receptor” (J Med Chem, 2024) can be followed below.

The series is described as follows: in vitro. The conditions noted are these: human, Caco-2.

In general, Papp A→B refers to how fast a substance crosses the layer from the apical side. Read a high Papp A→B as fast passage. In the case of `CC(C)NCC(O)COc1cccc2ccccc12` (stereo unspecified) [PROPRANOLOL], the Papp A→B turned out to be 32.2 ×10⁻⁶ cm/s.
